Test results taken from patent publication US20070032406A1 (UNIVERSITY OF ROCHESTER, published 2007).

Biological target: p75NTR (low affinity neurotrophin receptor, recombinant full-length)
Experiment: AP-ligand binding to transfected COS-7 cells

- binding: no binding
B1: AP-sNgR^C-term (LRRCT domain together with the unique domain of NgR, residues 261-445, AP fusion) (receptor)
chain: PWVCDCRARPLWAWLQKFRGSSSEVPCNLPQRLAGRDLKRLAASDLEGCAVASGPFRPFQTNQLTDEELLGLPKCCQPDAADKASVLEPGRPASAGNALKGRVPPGDTPPGNGSGPRHINDSPFGTLPGSAEPPLTALRPGGSEPPGLPTTGPRRRPGCSRKNRTRSHCRLGQAGSGSSGTGDAE
notes: Soluble, made in HEK293T cells; also called AP-sNgRCTu [Pro261-Glu445]; AP-NgR^C-term; not shown: alkaline phosphatase (AP) tag

Results are given in words; binding and its absence hold for the method and conditions named. Where a sequence is shown, tags or fusion partners need not be part of it.
